The values that follow come from publication PMC8120308.

Protein sequences, listed by entry. Tags and fused reporters are not part of them. Lines headed by an entry give the natural chain unless they say otherwise; changes in a name come on top. Chains listed by the source or under a name are the forms on record and can include a tag or linker.
UniProt P45481: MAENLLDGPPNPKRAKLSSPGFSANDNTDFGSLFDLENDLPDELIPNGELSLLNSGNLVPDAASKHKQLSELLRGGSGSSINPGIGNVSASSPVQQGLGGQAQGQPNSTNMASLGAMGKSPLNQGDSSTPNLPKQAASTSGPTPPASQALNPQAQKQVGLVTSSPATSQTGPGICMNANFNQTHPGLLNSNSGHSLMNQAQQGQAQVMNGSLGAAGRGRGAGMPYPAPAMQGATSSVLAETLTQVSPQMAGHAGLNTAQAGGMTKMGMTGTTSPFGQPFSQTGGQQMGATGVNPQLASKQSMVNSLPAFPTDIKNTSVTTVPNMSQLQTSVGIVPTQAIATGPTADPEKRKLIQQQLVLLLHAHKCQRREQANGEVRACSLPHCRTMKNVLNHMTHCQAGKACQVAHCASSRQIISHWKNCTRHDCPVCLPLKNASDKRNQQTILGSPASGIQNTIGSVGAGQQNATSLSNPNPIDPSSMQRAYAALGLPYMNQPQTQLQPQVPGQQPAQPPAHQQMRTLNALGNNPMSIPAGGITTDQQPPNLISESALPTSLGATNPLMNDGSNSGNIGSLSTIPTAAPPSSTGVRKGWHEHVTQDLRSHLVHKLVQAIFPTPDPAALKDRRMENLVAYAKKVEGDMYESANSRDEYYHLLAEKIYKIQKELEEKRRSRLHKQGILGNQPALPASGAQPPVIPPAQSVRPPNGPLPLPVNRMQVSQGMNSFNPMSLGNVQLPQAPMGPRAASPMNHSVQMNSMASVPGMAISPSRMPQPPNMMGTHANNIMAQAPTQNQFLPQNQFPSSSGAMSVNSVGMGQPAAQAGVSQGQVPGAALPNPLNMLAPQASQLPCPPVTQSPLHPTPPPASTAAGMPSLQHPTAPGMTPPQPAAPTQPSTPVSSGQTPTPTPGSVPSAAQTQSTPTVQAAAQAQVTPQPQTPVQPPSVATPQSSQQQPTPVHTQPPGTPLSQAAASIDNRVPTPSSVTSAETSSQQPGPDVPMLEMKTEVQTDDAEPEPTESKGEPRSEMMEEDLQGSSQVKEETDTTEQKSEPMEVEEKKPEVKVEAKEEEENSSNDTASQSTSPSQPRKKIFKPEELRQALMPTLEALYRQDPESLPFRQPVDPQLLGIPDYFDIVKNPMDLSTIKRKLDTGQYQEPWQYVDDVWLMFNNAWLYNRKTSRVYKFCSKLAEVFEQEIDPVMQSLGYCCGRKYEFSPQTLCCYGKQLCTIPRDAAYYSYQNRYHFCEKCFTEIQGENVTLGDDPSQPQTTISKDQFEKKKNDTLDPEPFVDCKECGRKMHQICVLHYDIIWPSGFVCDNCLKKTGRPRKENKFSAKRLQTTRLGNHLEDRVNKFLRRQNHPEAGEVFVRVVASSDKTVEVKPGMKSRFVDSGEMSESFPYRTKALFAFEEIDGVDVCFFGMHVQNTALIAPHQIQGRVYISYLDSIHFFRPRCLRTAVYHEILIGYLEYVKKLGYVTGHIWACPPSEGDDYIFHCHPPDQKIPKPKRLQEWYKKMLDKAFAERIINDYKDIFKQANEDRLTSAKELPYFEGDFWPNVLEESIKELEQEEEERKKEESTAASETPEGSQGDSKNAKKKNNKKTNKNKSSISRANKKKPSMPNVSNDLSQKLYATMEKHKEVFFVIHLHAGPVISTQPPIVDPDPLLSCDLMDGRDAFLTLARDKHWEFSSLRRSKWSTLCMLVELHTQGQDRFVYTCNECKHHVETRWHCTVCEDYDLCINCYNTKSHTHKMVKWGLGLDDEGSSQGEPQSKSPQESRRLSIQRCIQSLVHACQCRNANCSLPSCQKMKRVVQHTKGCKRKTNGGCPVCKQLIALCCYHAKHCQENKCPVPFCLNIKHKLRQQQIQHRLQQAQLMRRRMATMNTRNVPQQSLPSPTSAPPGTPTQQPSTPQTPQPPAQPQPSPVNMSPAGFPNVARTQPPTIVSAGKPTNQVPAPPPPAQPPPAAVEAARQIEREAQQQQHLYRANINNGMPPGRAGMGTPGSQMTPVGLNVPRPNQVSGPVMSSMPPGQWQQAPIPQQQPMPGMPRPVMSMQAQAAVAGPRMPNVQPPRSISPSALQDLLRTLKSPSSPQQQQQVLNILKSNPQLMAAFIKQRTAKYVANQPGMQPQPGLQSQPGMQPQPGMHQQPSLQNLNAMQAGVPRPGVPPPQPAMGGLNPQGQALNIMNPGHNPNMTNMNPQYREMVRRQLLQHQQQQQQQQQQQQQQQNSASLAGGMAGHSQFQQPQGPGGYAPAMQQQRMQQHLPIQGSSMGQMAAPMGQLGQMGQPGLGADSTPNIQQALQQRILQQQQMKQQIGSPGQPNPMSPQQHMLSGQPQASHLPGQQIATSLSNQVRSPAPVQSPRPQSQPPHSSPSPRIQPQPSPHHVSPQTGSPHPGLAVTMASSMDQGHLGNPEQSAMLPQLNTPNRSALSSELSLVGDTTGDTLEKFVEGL
phosphorylated cAMP-response element-binding protein, CREB (Ser133) (Q01147-1, form named): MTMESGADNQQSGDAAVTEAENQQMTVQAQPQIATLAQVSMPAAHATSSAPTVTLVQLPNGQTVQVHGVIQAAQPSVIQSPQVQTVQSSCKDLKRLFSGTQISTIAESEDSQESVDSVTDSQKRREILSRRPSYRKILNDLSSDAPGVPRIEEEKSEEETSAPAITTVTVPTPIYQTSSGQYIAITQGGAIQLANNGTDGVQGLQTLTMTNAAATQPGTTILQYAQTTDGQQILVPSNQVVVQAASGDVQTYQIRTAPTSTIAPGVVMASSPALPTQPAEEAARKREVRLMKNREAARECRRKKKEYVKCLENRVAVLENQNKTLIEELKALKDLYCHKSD

For the experiment, the target named is CREB-binding protein (CBP) (mouse (endogenous in RAW264.7)) (UniProt P45481). Description: co-IP; RAW264.7 lysates (IP lysis buffer: 10 mM Tris pH 7.4, 25 mM NaCl2, 5 mM EDTA, 0.1% NP40, 1% protease inhibitor), pre-cleared, mixed with anti-CBP antibody or control IgG for 1 h at 4°C, captured on Protein A magnetic beads, blotted for p-NF-κB or CREB (ser133); cells after LPS modeling, with or without XBJ, transfected with lentiviral vector overexpressing GSK-3β or negative control vector.

No constants are given. Whether binding was seen depends on the method and setting. In cells and extracts the contact can be indirect. Some entries that bind do so weakly or less than the wild type.

Turning to “phosphorylated cAMP-response element-binding protein, CREB (Ser133) (from UniProt Q01147-1 1-341)”, the binding result is “binds”.
